Experimental data from publication doi:10.1101/2025.09.26.678928.
No constants are given. Whether binding was seen depends on the method and setting. Some results given as binding are weak or reduced against the parent protein; the word gives no strength.

Amino acid sequences for entries named in this document (tags omitted).
UniProt A0A0D1E6B3: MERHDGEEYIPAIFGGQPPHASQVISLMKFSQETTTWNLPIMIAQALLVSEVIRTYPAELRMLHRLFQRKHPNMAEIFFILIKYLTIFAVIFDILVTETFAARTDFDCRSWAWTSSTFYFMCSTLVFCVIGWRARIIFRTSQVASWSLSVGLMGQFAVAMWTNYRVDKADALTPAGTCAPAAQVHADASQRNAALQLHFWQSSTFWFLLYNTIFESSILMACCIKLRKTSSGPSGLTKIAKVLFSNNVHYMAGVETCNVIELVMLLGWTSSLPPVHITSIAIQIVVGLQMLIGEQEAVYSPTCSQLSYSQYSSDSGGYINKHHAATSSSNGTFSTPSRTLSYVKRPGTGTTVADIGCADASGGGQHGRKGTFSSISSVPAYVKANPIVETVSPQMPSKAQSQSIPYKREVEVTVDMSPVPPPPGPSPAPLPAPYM

Biological target: G-protein-coupled receptor promoting fungal in planta expansion 1 (Gpe1) (Ustilago maydis)
Test: SDS-PAGE and anti-HA Western blot

Question: “G-protein-coupled receptor promoting fungal in planta expansion 1 (Gpe1) (from UniProt A0A0D1E6B3 1-435)” was tested. Which binding did it give?
Answer: binds
